Measurements published in patent US7879797B2, “HCV NS3 protease inhibitors” (Merck Sharp & Dohme Corp., priority 2005, dated 2011).
Some results were stated once for a whole list of compounds, not compound by compound.

Chains of the proteins cited; added tags and fusions are not shown. Residues count along the entry.
UniProt P27958, 1027-1657: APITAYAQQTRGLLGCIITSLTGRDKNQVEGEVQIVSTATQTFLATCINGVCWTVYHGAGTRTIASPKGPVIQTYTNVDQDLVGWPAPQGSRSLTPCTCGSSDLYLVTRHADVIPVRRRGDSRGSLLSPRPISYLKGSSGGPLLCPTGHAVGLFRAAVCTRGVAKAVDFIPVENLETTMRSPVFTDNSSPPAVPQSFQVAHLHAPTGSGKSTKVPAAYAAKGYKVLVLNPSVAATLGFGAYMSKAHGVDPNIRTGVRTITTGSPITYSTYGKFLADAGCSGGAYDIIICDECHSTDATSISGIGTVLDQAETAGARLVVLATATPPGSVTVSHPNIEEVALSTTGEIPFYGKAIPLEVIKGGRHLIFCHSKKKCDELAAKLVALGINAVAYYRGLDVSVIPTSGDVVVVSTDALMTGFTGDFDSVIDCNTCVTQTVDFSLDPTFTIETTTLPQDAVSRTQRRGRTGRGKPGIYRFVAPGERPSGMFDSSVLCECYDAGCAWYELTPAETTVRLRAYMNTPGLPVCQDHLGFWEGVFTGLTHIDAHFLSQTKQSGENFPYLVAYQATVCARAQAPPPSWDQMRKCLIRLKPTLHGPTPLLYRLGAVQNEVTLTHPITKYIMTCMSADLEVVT
UniProt P27958, 1658-1711: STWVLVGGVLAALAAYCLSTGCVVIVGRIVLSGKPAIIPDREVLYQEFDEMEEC

Target: HCV NS3 protease (Hepatitis C virus genotype 1a, UniProt P27958)
Experiment: HCV NS3 protease time-resolved fluorescence (TRF) assay
Assay type: biochemical

SMILES | Ki [µM]
C=C[C@@H]1C[C@]1(NC(=O)[C@@H]1C[C@@H]2CN1C(=O)[C@H](CCCC)NS(=O)(=O)CCCCCc1ccc3nc(-c4ccccc4)cc(c3c1)O2)C(=O)O [III-58, (1R,2S)-1-({[(2R,4S,7S)-7-Butyl-9,9-dioxido-6-oxo-19-phenyl-3,4,7,8,11,12,13,14-octahydro-2H,6H,10H-15,17-ethanediylidene-2,5-methanopyrido[3,4-q][1,9,5,8]oxathiadiazacyclooctadecin-4-yl]carbonyl}amino)-2-vinylcyclopropanecarboxylic acid] | < 10
C=C[C@@H]1C[C@]1(NC(=O)[C@@H]1C[C@@H]2CN1C(=O)[C@H](CCCC)NS(=O)(=O)CCCCCc1ccc3nc(-c4ccccc4)cc(c3c1)O2)C(=O)NS(=O)(=O)C1CC1 [III-59, (2R,4S,7S)-7-Butyl-N-((1R,2S)-1-{[(cyclopropylsulfonyl)amino]carbonyl}-2-vinylcyclopropyl)-6-oxo-19-phenyl-3,4,7,8,11,12,13,14-octahydro-2H,6H,10H-15,17-ethanediylidene-2,5-methanopyrido[3,4-q][1,9,5,8]oxathiadiazacyclooctadecine-4-carboxamide 9,9-dioxide] | < 10
C=C[C@@H]1C[C@]1(NC(=O)[C@@H]1C[C@@H]2CN1C(=O)[C@H](CCCC)NS(=O)(=O)CCCCCCc1ccc3nc(-c4ccccc4)cc(c3c1)O2)C(=O)O [III-60, (1R,2S)-1-({[(2R,4S,7S)-7-Butyl-9,9-dioxido-6-oxo-20-phenyl-3,4,7,10,11,12,13,14,15-decahydro-2H,6H-16,18-ethanediylidene-2,5-methanopyrido[3,4-r][1,9,5,8]oxathiadiazacyclononadecin-4-yl]carbonyl}amino)-2-vinylcyclopropanecarboxylic acid] | < 10
C=C[C@@H]1C[C@]1(NC(=O)[C@@H]1C[C@@H]2CN1C(=O)[C@H](CCCC)NS(=O)(=O)CCCCCCc1ccc3nc(-c4ccccc4)cc(c3c1)O2)C(=O)NS(=O)(=O)C1CC1 [III-61, (2R,4S,7S)-7-Butyl-N-((1R,2S)-1-{[(cyclopropylsulfonyl)amino]carbonyl}-2-vinylcyclopropyl)-6-oxo-20-phenyl-3,4,7,8,10,11,12,13,14,15-decahydro-2H,6H-16,18-ethanediylidene-2,5-methanopyrido[3,4-r][1,9,5,8]oxathiadiazacyclononadecine-4-carboxamide 9,9-dioxide] | < 10

Second part, the compound after the results:

Ki [µM] | SMILES
< 10 | C=C[C@@H]1C[C@]1(NC(=O)[C@@H]1C[C@@H]2CN1C(=O)[C@H](C(C)C)NC(=O)OCCCCCc1cc3c(cc(-c4csc(NC(C)C)n4)nc3cc1OC)O2)C(=O)O [III-62, (1R,2S)-1-[({(2R,4S,7S)-7-Isopropyl-20-[2-(isopropylamino)-1,3-thiazol-4-yl]-23-methoxy-6,9-dioxo-3,4,6,7,8,9,12,13,14,15-decahydro-2H,11H-16,18-ethanediylidene-2,5-methanopyrido[4,3-k][1,10,3,6]dioxadiazacyclononadecin-4-yl}carbonyl)amino]-2-vinylcyclopropanecarboxylic acid]
< 10 | C=C[C@@H]1C[C@]1(NC(=O)[C@@H]1C[C@@H]2CN1C(=O)[C@H](C(C)C)NC(=O)OCCCCCc1cc3c(cc(-c4csc(NC(C)C)n4)nc3cc1OC)O2)C(=O)NS(=O)(=O)C1CC1 [III-63, (2R,4S,7S)—N-((1R,2S)-1-{[(Cyclopropylsulfonyl)amino]carbonyl}-2-vinylcyclopropyl)-7-isopropyl-20-[2-(isopropylamino)-1,3-thiazol-4-yl]-23-methoxy-6,9-dioxo-3,4,6,7,8,9,12,13,14,15-decahydro-2H,11H-16,18-ethanediylidene-2,5-methanopyrido[4,3-k][1,10,3,6]dioxadiazacyclononadecine-4-carboxamide]
< 10 | C=C[C@@H]1C[C@]1(NC(=O)[C@@H]1C[C@@H]2CN1C(=O)[C@H](C(C)C)NC(=O)OCCCCCc1cc3c(cc(C(=O)OC)nc3cc1OC)O2)C(=O)NS(=O)(=O)C1CC1 [III-64, Methyl (2R,4S,7S)-4-{[((1R,2S)-1-{[(cyclopropylsulfonyl)amino]carbonyl}-2-vinylcyclopropyl)amino]carbonyl}-7-isopropyl-23-methoxy-6,9-dioxo-3,4,6,7,8,9,12,13,14,15-decahydro-2H,11H-16,18-ethanediylidene-2,5-methanopyrido[4,3-k][1,10,3,6]dioxadiazacyclononadecine-20-carboxylate]
< 10 | C=C[C@@H]1C[C@]1(NC(=O)[C@@H]1C[C@@H]2CN1C(=O)[C@H](C(C)C)NC(=O)OCCCCCc1cc3c(cc(C(=O)O)nc3cc1OC)O2)C(=O)NS(=O)(=O)C1CC1 [III-65, (2R,4S,7S)-4-{[((1R,2S)-1-{[(Cyclopropylsulfonyl)amino]carbonyl}-2-vinylcyclopropyl)amino]carbonyl}-7-isopropyl-23-methoxy-6,9-dioxo-3,4,6,7,8,9,12,13,14,15-decahydro-2H,11H-16,18-ethanediylidene-2,5-methanopyrido[4,3-k][1,10,3,6]dioxadiazacyclononadecine-20-carboxylic acid]
